We go through 2 compounds from patent publication US20210261570A1, “ANTIBIOTIC RESISTANCE BREAKERS” (KING'S COLLEGE LONDON, priority 2017, published 2021).

“Also recorded” adds a separate entry of the source.

For one experiment, the system named is EMRSA 15 strain. Put plainly: Reserpine assay. Type of experiment: cell-based, S. aureus. The note with it: compound at 0.25×MIC with reserpine. On the procedure: (§1) A simple plate based method was used as described by Beyer et al. (24). […] Reserpine was added at a final concentration of 10 µg/mL (made up at 40 μg/mL in TSB, 50 μL per well). The bacteria were added at an OD of 0.01 in TSB (100 μL/well). The plate was a normal clear plate as used for MICs. OD was read every 30 minutes for 9 hours (the literature states 7 hours, but this is strain-dependent). Blanks of TSB and water were added to ensure no infections were present.
(§2) The mechanism of inhibition for reserpine involves direct binding to and competitive inhibition of the efflux pump during drug/H^+ antiport. This assay was validated as a method for testing active efflux of fluoroquinolones in Staphylococcus strains by Beyer et al. (24).

The test system of a further experiment is MSSA 9144 strain. Put plainly: Reserpine assay. As to conditions: compound at 0.25×MIC with reserpine. It counts as cell-based, S. aureus. On the procedure: as §1, §2

Turning to `O=C(O)c1cn(C2CC2)c2cc(N3CCNCC3)c(F)cc2c1=O` [Ciprofloxacin, ciprofloxacin, reference compound], the “efflux by the strain (reserpine assay)” value with EMRSA 15 strain and with MSSA 9144 strain was “effluxed” each time.

For the compound `O=C(O)c1cn(C2CC2)c2cc(N3CCN(Cc4cccc5ccccc45)CC3)c(F)cc2c1=O` [ML-77-005], the “efflux by the strain (reserpine assay)” value in the experiment with EMRSA 15 strain and with MSSA 9144 strain was “cannot be effluxed; also recorded: not effluxed” in each case.
